# In patent publication US10590109B2, “Heterocyclic compounds used as FGFR inhibitors” (Nanjing InnoCare Pharma Tech Co., Ltd., priority 2016, dated 2020):
# At least one structure is not confirmed: it was looked up by name or label, or the drawing left a doubt.
# Tested on: FGF19/FGFR4-overexpressed Hep3B hepatocellular carcinoma (HCC) xenograft tumors
# Type: in vivo
# Settings: 100 mg/kg BID
# Protocol: Data points represent group mean, error bars represent standard error of the mean (SEM). *P<0.05, **P<0.01, ***P<0.001, ****P<0.0001, NS P>0.05 vs vehicle group.
# The relative change of body weights (% RCBW) was calculated based on the following formula: RCBW (%)=(BWi−BW0)/BW0×100%, BWi was the bodyweight on the day of dosing and BW0 was the bodyweight on the first day of administration. Data points represent percent group mean change in BW. Error bars represent standard error of the mean (SEM).
# Dosing was initiated on day 0 and effects on tumor growth were evaluated by measuring percent tumor growth inhibition (TGI) at the end of the study. Tolerability was assessed by body weight loss, lethality, and clinical signs of adverse treatment-related side effects. Tumor volumes and body weights were measured twice per week in the administration period. The percentage of TGI was determined on day 18 of the study. The difference between the mean values of tumor volume in treatment and vehicle groups was analyzed for significance using one-way ANOVA (followed by Dennett's test) at each time point and a P<0.05 was considered to be statistically significant.
structure (smiles),measurement,value
"COC[C@@H](C)Oc1cc(NC(=O)N(C)c2ccc(CN3CCN(C)CC3=O)c(C=O)n2)ncc1C#N [Compound 18, (R)-3-(5-cyano-4-((1-methoxyprop-2-yl)oxo)pyrid-2-yl)-1-(6-formyl-5-((4-methyl-2-carbonylpiperazin-1-yl)methyl)pyrid-2-yl)-1-methylurea]",tumor regression (in words),complete regression
